Measurements from article PMC10163288.
The other results are listed elsewhere or left out.

B1: il2ra_site1_2b5i_normal_mot_HHH_b1_02271_000000068_0001_1_16_H_._HHH_b2_07355_af2_0001_0000300014_0000001_0_af2pred_0001_af2pred (protein)
chain: SSSSSSRRELIEELNKLFKELAELGDDETLEEVYELFKEAARKKDPELLEEAIELAKRVLSSSSS
B2: il2ra_site1_1z92_normal_mot_9daacd37e3baa650618043516f9fc948_0001_af2_000000116_0001_36_50_H_._09c2afe89fb4cbada1505b3a46965288_0001_0001_0000300041_0000001_0_a … (protein)
chain: GPEDELERLTEELGDPREAIRELLEYIERLAGDPRLARQLLKIVIKRLFNVPPEEAERLLEEAEK
B3: il2ra_site2_3nfp_sap_9_mot_HHH_b2_07840_000000026_0001_18_34_H_._ems_3hM_3637_af2_0001_0000300035_0000001_1_0001 (protein)
chain: SSSSDKSEEYLELAEEMVEEAEEAGDEEVLRSHIEVALAMAESLGDEETFEKLEKLLEELSSSSS
B4: il2ra_site2_3nfp_sap_14_mot_HHH_b2_00747_000000224_0001_22_38_H_._HHH_b1_02963_0001_0000300013_0000001_0_0001 (protein)
chain: SSSSDDEELLEELLRRARELLEEGDEEQAREVLFRAALLAWKLDDEETARELAKLLFQIQQSSSS
B5: il2ra_site1_2b5i_sap_7_mot_HHH_b2_01200_af2_000000093_0001_1_18_H_._HHH_b1_06018_af2_0001_0000200009_0000001_0_0001 (protein)
chain: SSSSSSEEEVDELFREASELWRKGDLERAREVLKEAEELAKELGDENTLKDLEFMLEWIRSSSSS
B6: il2ra_site1_2b5i_normal_mot_HHH_b2_04910_000000118_0001_1_19_H_._HHH_b2_07216_0001_0000100001_0000001_1_af2pred_0001_af2pred (protein)
chain: SSSSTELTREAFELLEEANKLFHNGDPEEAERTLEEALEIARQGGSKSLARSIEAALRLLDSSSS
B7: il2ra_site2_3nfp_normal_mot_HHH_b1_04762_000000120_0001_42_54_H_._HHH_b1_01332_af2_0001_0000100001_0000001_0 (protein)
chain: SSSSSDSEEYLRAALLLAREAIKRGDKELAEKHLRLIAKLAEDAKDEEALKEAEELLEEVGSSSS
B8: il2ra_site1_2b5i_normal_mot_22370d59370c406a0c205a431f537cfa_0001_af2_000000141_0001_1_31_H_._0fe4f1796e7c9b039ee44eb4e8059732_0001_0001_0000100009_0000001_1_af … (protein)
chain: EEELLAALKALLDVPEEEAQELLRLHREADATGDPELARRLVDLVWRLSKGDVNKLTAVHKLLAP
B9: il2ra_site1_1z92_sap_18_mot_HHH_b2_07834_af2_000000183_0001_23_39_H_._HHH_b1_07060_0001_0000100003_0000001_0_0001_af2pred_0001_af2pred (protein)
chain: SSSSSSDRELEEFIERLVEELGLSEEEEKLLRRLLERLEEAGFSERSIRRALELLARRLSSSSSS
B10: il2ra_site2_2erj_sap_27_mot_HHH_b2_05955_000000258_0001_43_57_H_._d3e4cb6529674e0fd0d92c6b70156c02_0001_af2_0001_0000200012_0000001_0_0001 (protein)
chain: SSSSSEAYRKIALEVFELAEEYARKGDPRYRERIEELLEEAEEAGDPALERYIELVLEELSSSSS
B11: il2ra_site1_2b5i_sap_9_mot_HHH_b2_04545_af2_000000008_0001_21_36_H_._HHH_b1_00929_0001_0000500025_0000001_0_0001_af2pred_dldesign_0_af2pred (protein)
chain: SSSSSRFEDRVLAQAREAFEELLAEGDREGLAKLLAELEALRDLTRSPRIAAFLAEMRARLSSSS
B12: il2ra_site1_3nfp_normal_mot_HHH_b1_01335_af2_000000105_0001_39_53_H_._22a4c3b3a30f3048295c297a9f883f79_0001_0001_0000700027_0000001_0_af2pred_0001_af2pred_1 (protein)
chain: SEAEEVLRELREAFKDDPEVERVLEEIKEAAEKGDARLVSRLLRRLEEVLGDPKLVERLMRVLAK
B13: il2ra_site2_3nfp_sap_20_mot_HHH_b1_04032_000000208_0001_43_56_H_._HHH_b2_08352_af2_0001_0000400042_0000001_0_0001 (protein)
chain: SSSSDTEEYLRAVLALAKEALENGDPEFARRLAELALQAAEDANDPELFEEIRELLEEIEGSSSS
B14: il2ra_site1_2b5i_sap_16_mot_HHH_b2_06557_000000121_0001_42_56_H_._HHH_b1_04909_0001_0000700040_0000001_0_0001_af2pred_dldesign_0_af2pred (protein)
chain: SSSSSSDEVYDLFKEAERLRREGKKEEAKKLLEKAIELAKKLGETKKVEELEYLLKNLSSSSSSS
B15: il2ra_site2_3nfp_normal_mot_HHH_b2_04451_000000238_0001_21_37_H_._HHH_b1_00607_af2_0001_0000100014_0000001_0 (protein)
chain: SSSSSDEERVEELEEQIKRAEEEGDRAEVLRLLAEVTRLAAKAGDEELARRVLELFEKLQSSSSS
B16: il2ra_site1_3nfp_sap_13_mot_HHH_b1_04931_000000291_0001_38_56_H_._HHH_b2_07276_0001_0000200010_0000001_0_0001 (protein)
chain: SSSSSDYEELERLFREIFELAKKGDHEEARRLIEELEELAHEANNEFMEQAVKQLKKTVNSSSSS
B17: il2ra_site1_2b5i_sap_11_mot_HHH_b1_08027_af2_000000009_0001_1_17_H_._HHH_b2_04458_af2_0001_0000100003_0000001_0_0001 (protein)
chain: SSSSDRELTRAAVRIVWRLMYRLNLDREEAQLLNRLAAELVDRGVSPEELEEILREYAEEISSSS
B18: il2ra_site2_2erj_sap_21_mot_HHH_b2_08364_000000146_0001_1_19_H_._19cb7799addf660ec2645d5c0312015a_0001_1_0001_0000300017_0000001_0_0001_af2pred_0001_af2pred (protein)
chain: SSSSSEDEEEVKKLLEEAKRIEDPERATELVIEAFQIALEINNEELLREIHKLSRELYHGSSSSS
B19: il2ra_site1_1z92_normal_mot_HHH_b1_07526_000000113_0001_40_57_H_._HHH_b1_02791_af2_0001_0000100008_0000001_0_af2pred_0001_af2pred_1 (protein)
chain: SSSSDSEERLRELIEELVRELGLSERDEKNLEKLLEWALELGADEEDIERALRHFARALRGSSSS

These binders were tested against il2ra, P01589 (assay: yeast display titration).

Apparent Kd, inactive:
B1 no binding seen, B2 no binding seen, B3 no binding seen, B4 no binding seen, B5 no binding seen, B6 no binding seen, B7 no binding seen, B8 no binding seen, B9 no binding seen, B10 no binding seen, B11 no binding seen, B12 no binding seen, B13 no binding seen, B14 no binding seen, B15 no binding seen, B16 no binding seen, B17 > 1500 nM, B18 no binding seen, B19 no binding seen
